# PubChem BioAssay AID1347423 (Functional Genomics Laboratory (NCATS/FGL), 2020)
# Among all 52,000 sequences or so, about 210 (0.4%) were called active.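 The calls were made as follows: active = gene whose silencing raises cell survival under the drug, median off-target-corrected z-score across its silencing RNAs 2 or more; inactive = the rest.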 This is one part of the list.
# Test: Resistance to Poly (ADP-Ribose) Polymerase inhibitor: Gene Identification via Genome-wide siRNA Screen
# Conditions: mouse BRCA2 R2336H ES cells, olaparib, CellTiter-Glo viability; hits give high values
# Procedure, shortened: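 Genome-wide siRNA screen (3 siRNAs/gene, 20 nM) in mouse ES cells carrying hypomorphic BRCA2 R2336H; olaparib 500 nM added 48 h post-transfection, CellTiter-Glo viability 72 h later. Normalized to plate-median negative control; MAD z-scores, gene median, seed-adjusted.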
row,Sequence,z-score
1,GGAUUUUGUGGAUCCAUGGTT against Wars,inactive: 0.793
2,GGCCUCCUAACAAUUCAGCTT against Foxp1,inactive: 0.00103
3,GGACACCAUGUGCUAGAGCTT against L1cam,inactive: -0.115
4,GGAUGCAUUGCUGCUGUGGTT against Spnb2,inactive: -1.1
5,GGAAACUUGUUGAAGAGAUTT against Ptprz1,inactive: 1.19
6,GCAGAAUUGAGUCACCCAATT against Sp1,inactive: -2.18
7,GGGUUAGUAAUGAAUGAUGTT against Arpc5l,inactive: 0.904
8,GCUUCGAGAGUCAACUAUGTT against Mds1,inactive: 1.39
9,GGAAGAUGAAUCAUUACCATT against Tmem32,inactive: -0.983
10,GGAUGAGAACAUUGUGAUUTT against Pask,inactive: 0.264
11,GGAUACCACUUUAGAACCATT against Fgfr2,inactive: 0.299
12,CCAUGGUUCUGAUCAAUUUTT against Cyp2j11,inactive: 1.72
13,GGAAGAGCCAGUGGUAUAATT against A330015D16Rik,inactive: -1.6
14,GGAAUGUAUGUCUCAGCUCTT against Olfr45,inactive: -0.245
15,GGCCUUUGACUUAUUCGAUTT against Cetn4,inactive: -0.322
16,GGCAUCAAAGGAGAUAAGGTT against Col9a2,inactive: 0.419
17,CCAUCUAUGGACCCGUAACTT against E330017A01Rik,inactive: 1.69
18,GCUUGUGAGUGGAACUUUCTT against Mcm6,inactive: -1.33
19,GGACUGAUGAUCAAGCAAATT against Col8a2,inactive: 0.58
20,GGACGUGACUCUCAUCAUCTT against Atp2b3,inactive: -0.652
21,GGACAUGAAACUCUGCACCTT against Drd2,inactive: 1.33
22,UUUUAGGUUCCCUGGAAUGTT against Mrgprb5,inactive: 0.0374
23,GGAAUUGCCAAUCAAUGAUTT against A530099J19Rik,inactive: 0.959
24,GGACUACAUCAACCUGGAUTT against Mlf2,inactive: -1.16
25,GGCCUUGCUUUCAUAAAGUTT against Mrpl49,inactive: -0.329
26,GGAGGAUGGGCAAGAAUAUTT against Eif1ay,inactive: -1.97

row,Sequence,z-score
1,GGUGUCUUUUUUUACAAGATT against Tnfsf11,inactive: -0.0509
2,GCGACUUCGGAAGAUCUAUTT against Srl,inactive: 1.55
3,GGAUCAAUGAAAAUGAGAATT against Fzr1,inactive: -1.74
4,GCUCUUCGAGUAAAUCACATT against Zfp108,inactive: -0.575
5,GGAAUGCUUCAAAAGGGCATT against Fkbp1b,inactive: 0.0255
6,GCUCUGUCCAAGCACUUUATT against P2rx4,inactive: -0.927
7,GCUUAGAGCGAUUCUAUGATT against Brunol4,inactive: 0.227
8,GGUAAACAUGAUAUUUGGGTT against Olfr670,inactive: 0.0219
9,GGAAGUGAGAAGAUGGAUATT against C630035N08Rik,inactive: -0.797
10,GGCUAAAGUCAUCUUCUGGTT against E230031K19,inactive: 0.4
11,GCUGAAAAAGUGGAAAUCGTT against Psma4,inactive: -3.09
12,GGCCAGAGGUGCAAUAUUGTT against Notch2,inactive: 0.114
13,GGGAAUGGGUCUUGUAAACTT against Ppat,inactive: 0.54
14,GGUGGCUGUAAAGAAGUUATT against B230120H23Rik,inactive: 0.99
15,GGAGCGCAGACAACAGAUUTT against Zfp95,inactive: -1.88
16,GGCCCAACAUAUAUCAAAUTT against Adck2,inactive: -0.359
17,GGUAUAUGAAAGAUUGUCATT against Vps26,inactive: 0.163
18,GGACUUAACUCGUGGAUCCTT against Fancc,inactive: -1.47
19,GCACUGGACUUAGGAUGGUTT against Ankrd22,inactive: -0.717
20,GGGUGUUUACUUUAUAGAATT against AU022726,inactive: 0.601
21,GCUUUCGCCAAUAAAAAAGTT against Slc13a2,inactive: -0.669
22,GGAUCUGUUUCACUGUGGCTT against Corin,inactive: 0.19
23,CCGCUAUAUCACGGAGCAGTT against En1,inactive: -0.266
24,GGAGGAACAGAGUUUGCACTT against Olfr642,inactive: 1.83
25,GGUCCUCAGAUUUUGGGACTT against Sorcs2,inactive: -0.783
26,GCUACGUGUACCUGGAGUGTT against Cpeb1,inactive: 0.0154

# Some of the entries so far, with tabs:
row	Sequence	z-score
16	GGCCCAACAUAUAUCAAAUTT against Adck2	inactive: -0.359
17	GGUAUAUGAAAGAUUGUCATT against Vps26	inactive: 0.163
18	GGACUUAACUCGUGGAUCCTT against Fancc	inactive: -1.47
19	GCACUGGACUUAGGAUGGUTT against Ankrd22	inactive: -0.717
20	GGGUGUUUACUUUAUAGAATT against AU022726	inactive: 0.601
21	GCUUUCGCCAAUAAAAAAGTT against Slc13a2	inactive: -0.669
22	GGAUCUGUUUCACUGUGGCTT against Corin	inactive: 0.19
23	CCGCUAUAUCACGGAGCAGTT against En1	inactive: -0.266
24	GGAGGAACAGAGUUUGCACTT against Olfr642	inactive: 1.83
25	GGUCCUCAGAUUUUGGGACTT against Sorcs2	inactive: -0.783
